Experiments:
H1993 = assay: Impedance-based TCRP of Met addicted H1993 cells (xCelligence); assay type: cell-based, human; conditions: increasing concentrations
RBL-2H3 PDGFRβ = assay: Impedance response of engineered RBL-2H3 PDGFRβ cells to PDGF stimulation and PDGFR inhibition; assay type: cell-based; conditions: Rattus norvegicus, inhibitor 1 hour, then PDGF BB (10 ng/ml), peak normalized CI, read-out: IC50 acting on PDGFR in the engineered cell line
C6 = assay: Impedance-based TCRP of PDGFR addicted C6 glioma cells; assay type: cell-based, rat

IC50 (C6; Rattus norvegicus, Long-term (96 hours post compound treatment) CI): 275 nM
Compound: Cc1ccc(NC(=O)c2ccc(CN3CCN(C)CC3)cc2)cc1Nc1nccc(-c2cccnc2)n1 [Imatinib]
TCRP (Cell Index response) (H1993): None of these inhibitors induced a TCRP similar to PF2341006
IC50 (RBL-2H3 PDGFRβ): 135 nM
TCRP (Cell Index response) (C6; increasing concentrations): dose-dependent short-term increase (to a various degree) and long-term decrease in Cell Index

— patent US10620188B2, “Using impedance-based cell response profiling to identify putative inhibitors for oncogene addicted targets or pathways” (ACEA Biosciences, Inc., priority 2002, dated 2020)
